Data on 16 compounds can be found in PubChem BioAssay AID2685 (National Center for Advancing Translational Sciences (NCATS), 2010).

This experiment in a line: qHTS Assay for Lipid Storage Modulators in Drosophila S3 Cells.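 On cell number change: cells counted by Cell Tracker Red CMTPX staining in the red channel.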 To be noted: BODIPY lipid droplet fluorescence, 18-24 h; for cell number change: measured here: cell count max response, cells fed with added oleic acid. The method, boiled down: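 Drosophila S3 cells got compounds at several concentrations plus oleic acid (400 uM solution). Laser-scanning cytometry with 488 nm excitation read lipid droplets at 500-530 nm and cells at 575-640 nm. Percent activity was relative to 20 uM Triacsin C.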

[1] abbreviates: measured here: cell number channel AC50, cells fed with added oleic acid.
The mark [2] stands for this setting: measured here: lipid fluorescence (Fed channel) AC50, cells fed with added oleic acid.

Some of the results follow. Shown are side measurements of this screen, not its main read-out; they come without a call. Most of these compounds were active or inconclusive in the main read-out, so they are no random draw. Words in brackets tell the shape of the fitted curve; partial curves, single points and poor fits give uncertain potencies.

Regarding `CN(C)c1ccc(/C=C2\SC(N3CCCCC3)=NC2=O)cc1`, the cell number change amounted to 12.3%.
`NC(=O)c1cc(N2C(=O)C3CC=CCC3C2=O)ccc1N1CCCCC1` (centres undefined): the cell number change amounted to 33.8%. Besides, the AC50 (commonly the midpoint of the concentration-response curve, whichever way the signal moves) under setting [1] was 29.1 µM [rising, single point].
In the case of `Cc1ccc(Oc2ncccc2C(=O)NCC(=O)O)cc1`, the cell number change was -60.5%. Moreover, under setting [1], the AC50 was 32.6 µM [falling, single point].
For the compound `O=C(O)CC/C(=N\NC(=O)c1ccccc1Br)c1ccccc1`, the cell number change was found to be 40.1%. Under setting [1], the AC50 was 29.1 µM [rising, single point]. Further, under setting [2], the AC50 is 20.6 µM [rising, single point].
Regarding `CCn1c2ccccc2c2cc(NC(=O)c3cccc([N+](=O)[O-])c3C)ccc21`, the cell number change was found to be 23.3%. For the same compound, the AC50 under setting [1] is 0.731 µM [falling, single point]. The AC50 under setting [2] was 0.116 µM [rising, full curve, poor fit].
Turning to `Nc1c(C(=O)c2ccc(Cl)cc2)sc2nc3c(cc12)CCC3`, the cell number change came to 17.3%. Besides, under setting [2], the AC50 was 0.731 µM [rising, partial curve].
As to `CC(=O)c1cccc(NC(=O)CN(c2ccc(F)cc2)S(C)(=O)=O)c1`, the cell number change was found to be 59.9%. Besides, the AC50 under setting [1] is 25.9 µM [rising, partial curve, poor fit].
`COc1ccc(N2CC(C)Cn3c2nc2c3c(=O)n(Cc3ccccc3F)c(=O)n2C)c(OC)c1` (centres undefined): the cell number change was -9.34%.
For `COc1ccc(OCC(=O)N2CCN(c3cccc(Cl)c3)CC2)cc1`, the cell number change amounted to 79.9%. Further, the concentration at half-maximal activity (AC50) under setting [1] is 14.6 µM [rising, partial curve].
Consider `Oc1ccccc1-c1cc(-c2ccccc2)no1`, for which the cell number change amounted to 9.66%. Moreover, the AC50 under setting [2] was 3.26 µM [rising, partial curve].
As for `CCCSC1=N/C(=C\C=C\c2ccco2)C(=O)S1`, the cell number change is -12.8%. Also, under setting [2], the AC50 is 6.51 µM [falling, single point].
On to `O=C(CCCCl)Oc1ccc2cc(-c3ccc4ccccc4n3)c(=O)oc2c1`, for which the cell number change came out at 38.7%. The AC50 under setting [1] was 29.1 µM [rising, single point].
Turning to `COc1ccc(CCNC(=O)CSC2=NS(=O)(=O)c3ccccc3N2)cc1OC`, the cell number change is -1.36%. Further, under setting [2], the AC50 was 1.64 µM [falling, partial curve, poor fit].
For `O=Nc1c(O)n(Cc2c(Cl)cccc2Cl)c2ccccc12`, the cell number change is -41.3%. Also, under setting [1], the AC50 was 16.4 µM [falling, partial curve, poor fit]. In addition, under setting [2], the AC50 is 0.0651 µM [falling, full curve, poor fit].
Turning to `CCc1ccc(NC(=O)Cn2nc(C)n3cccc3c2=O)cc1`, the cell number change was -3.24%. In addition, the AC50 under setting [2] was 0.517 µM [rising, single point].
With `CCOc1cc2c(cc1/C=C/c1noc(C)c1[N+](=O)[O-])OC(C)C2` (centres undefined), the cell number change turned out to be 115%. Under setting [1], the AC50 is 4.11 µM [rising, partial curve]. Moreover, the AC50 under setting [2] is 0.58 µM [falling, single point].
